These results are taken from PubChem BioAssay AID2685 (National Center for Advancing Translational Sciences (NCATS), 2010).

Each structure is given as a SMILES string. Some of the results follow. Shown are side measurements of this screen, not its main read-out; they come without a call. The list favours compounds with an active or inconclusive main result. Words in brackets tell the shape of the fitted curve; partial curves, single points and poor fits give uncertain potencies.

The nature of the test: qHTS Assay for Lipid Storage Modulators in Drosophila S3 Cells.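 On cell number change: cells counted by Cell Tracker Red CMTPX staining in the red channel.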 The settings on record: BODIPY lipid droplet fluorescence, 18-24 h; for cell number change: measured here: cell count max response, cells fed with added oleic acid. The gist of the method:
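Drosophila S3 cells loaded with oleic acid (400 uM, as added) and compounds at several concentrations; lipid droplets imaged by 488-nm laser-scanning cytometry, 500–530 nm intensity and object ratio to cell channel. Percent activity normalized to 20 uM Triacsin C.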
A general note: Quantitative high-throughput screening tests each substance at several concentrations.

The mark [1] stands for this setting: measured here: lipid fluorescence (Fed channel) AC50, cells fed with added oleic acid.
Where [2] appears, read: measured here: cell number channel AC50, cells fed with added oleic acid.

Turning to `COc1ccc(C(O)c2nc3ccccc3n2C(C)C)cc1` (stereo not given), the cell number change turned out to be 26.9%. Further, the AC50 – broadly, the concentration giving half of the maximal activity seen – under setting [1] is 29.1 µM [rising, single point].

With `O=C1/C(=C/c2ccccc2)SC(=S)N1N1C(=O)C2CC2C1=O` (stereo not given), the cell number change was -44.3%. Moreover, under setting [2], the AC50 was 1.84 µM [falling, full curve]. In addition, the AC50 under setting [1] was 1.64 µM [falling, full curve].

As to `Cc1cc(C)cc(C(=O)Nc2nc3ccccc3[nH]2)c1`, the cell number change was -10.5%. For the same compound, the AC50 under setting [1] is 6.31 µM [rising, single point].

Consider `Cc1cc(C)cc(NC(=O)CSc2nnc(CNC(=O)c3cccs3)o2)c1`, for which the cell number change stood at 14.5%. In addition, under setting [1], the AC50 is 6.51 µM [falling, partial curve, poor fit].

With `CCOc1ccccc1NC(=O)c1cc(Cl)ccc1NC(=O)c1ccco1`, the AC50 by setting is: under setting [2], 3.26 µM [rising, single point]; under setting [1], 1.84 µM [rising, partial curve].

As to `CSc1cc(-c2ccc(Cl)cc2)n(Cc2ccccc2)c(=O)c1C#N`, the cell number change is 61.4%. Moreover, the AC50 under setting [2] was 23.1 µM [rising, single point]. The AC50 under setting [1] is 1.46 µM [rising, full curve].

As to `CC(=O)Nc1ccc(C(=O)NCC(=O)OCc2c(F)cccc2Cl)cc1`, the AC50 under setting [1] is 1.16 µM [falling, single point].

For `C[C@@H](CC#N)CN1CC[C@H](C(C)(C)C)CCC1=O`, the cell number change is -6.89%. In addition, the AC50 under setting [1] is 25.9 µM [rising, single point].

Regarding `Cc1ccc(Nc2oc(C)nc2C#N)cc1`, the cell number change came out at 3.93%.

Turning to `CCn1c(-c2ccccc2Cl)nn(CC(=O)NCCc2ccccc2)c1=S`, the cell number change turned out to be 38%. In addition, the AC50 under setting [2] is 11.6 µM [rising, partial curve, poor fit]. Also, the AC50 under setting [1] is 10.3 µM [rising, partial curve, poor fit].

In the case of `COc1ccc(N(CC(=O)N2CCN(c3ccc(F)cc3)CC2)S(=O)(=O)c2c(C)noc2C)cc1`, the cell number change was -23.1%.

Take `CN1\C(=C/C=C/C=C/C=[N+](C)C)C(C)(C)c2ccccc21`: the cell number change is -180%. Besides, under setting [2], the AC50 is 29.1 µM [falling, single point].

Consider `CCOc1ccc(C)cc1S(=O)(=O)n1nc(C)cc1C`, for which the cell number change was 52.7%. Besides, the AC50 under setting [2] was 18.4 µM [rising, single point].

For the compound `Cc1ccc(-n2cc(-c3ccc([N+](=O)[O-])cc3)[nH]c2=S)c(C)c1`, the cell number change was -15.9%.

`CCCCn1nnnc1SCC(=O)Nc1cccc(C)n1`: under setting [2], the AC50 was 4.11 µM [rising, partial curve].

`CCOC(=O)c1sc(N)c(C#N)c1CSc1nc2ccc(C)cc2[nH]1`: under setting [2], the AC50 was 0.092 µM [rising, full curve, poor fit].

As for `CC(=O)SC(C[N+](=O)[O-])c1cn(C(C)=O)c2ccccc12` (stereo not given), the cell number change was -30%.

Consider `COc1ccccc1NC(=O)CSc1nnc2ccccn12`, for which the cell number change was determined as 5.14%.

With `Cc1ccc(C(=O)NCC(=O)NC23CC4CC(CC(C4)C2)C3)cc1`, the cell number change came out at 30.5%. In addition, under setting [2], the AC50 was 32.6 µM [rising, partial curve, poor fit]. Further, the AC50 under setting [1] was 0.461 µM [rising, full curve].

For the compound `O=C(Nc1nc2ccc(SC(F)F)cc2s1)c1ccc(NS(=O)(=O)c2ccc(F)c(F)c2)cc1`, the cell number change is -5.37%. Moreover, the AC50 under setting [1] is 25.9 µM [falling, single point].

With `CC(C)(C)c1cc(C(F)(F)F)nc(SCCCNC(=O)c2ccco2)n1`, the cell number change was 133%. Also, under setting [2], the AC50 was 2.06 µM [rising, full curve]. Moreover, the AC50 under setting [1] is 2.06 µM [rising, partial curve].

Turning to `Cc1ccc(SCC(=O)NC(=O)Nc2ccc3c(c2)OCCO3)cc1C`, the cell number change was found to be 44.1%. Under setting [2], the AC50 is 18.4 µM [rising, single point]. Besides, the AC50 under setting [1] was 23.1 µM [rising, single point].

On to `CC(C)C[C@@H](CO)N1CCN(Cc2ccc(Br)cc2)CCC1=O`, for which the cell number change is -11.7%.

Consider `COc1cc(C(=O)N=C2SC3CS(=O)(=O)CC3N2c2ccccc2)cc(OC)c1OC` (stereo not given), for which the cell number change worked out at 7.25%. For the same compound, the AC50 under setting [1] was 0.13 µM [rising, full curve, poor fit].

Take `CCCCC(=O)Nc1cc(N(C)C)nc2ccccc12`: the cell number change came out at 4.89%. Moreover, under setting [1], the concentration at half-maximal activity (AC50) was 1.16 µM [rising, full curve].

For the compound `CCCn1c(N)c(N2CCCCC2)c(=O)n(CC(=O)Nc2ccccc2C)c1=O`, the cell number change stood at 8.37%. For the same compound, the half-maximal activity concentration (AC50) under setting [1] is 7.31 µM [rising, partial curve, poor fit].

`CCOC(=O)C1(Cc2cccc(Cl)c2)CCCN(C(=O)c2ccoc2C)C1` (stereo not given): the cell number change is -22.3%. In addition, under setting [1], the AC50 is 0.00517 µM [rising, full curve, poor fit].

On to `O=C1CCCN1CCCNS(=O)(=O)c1ccc(Br)s1`, for which the cell number change was -15.5%.

Take `O=S(=O)(NC1CCCCC1NS(=O)(=O)c1ccc(F)cc1)c1ccc(F)cc1` (stereo not given): the cell number change was found to be 19.2%.

In the case of `CN(C)C(CNC(=O)c1cc(Br)ccc1Cl)c1ccco1` (stereo not given), the cell number change is 16.9%.

Take `Cc1ccccc1C(=O)NNC(=O)c1ccncc1`: the cell number change was 17.9%. Further, the AC50 under setting [1] was 29.1 µM [rising, single point].

On to `CCN(CC)S(=O)(=O)c1cc(C(=O)Nc2ccccc2[N+](=O)[O-])ccc1Cl`, for which the cell number change amounted to 3.41%. Further, the AC50 under setting [1] is 1.3 µM [rising, full curve, poor fit].

As to `CCc1c(C)nc(N2CCN(c3ccc(F)cc3)CC2)[nH]c1=O`, the cell number change turned out to be 13.3%. Besides, the AC50 under setting [1] is 6.51 µM [falling, single point].

For the compound `COCC(COS(N)(=O)=O)Cc1ccccc1` (stereo not given), the cell number change stood at 2.91%. The AC50 under setting [1] was 29.1 µM [rising, single point].

Regarding `Cc1cccc(C(=O)OC(C)C(=O)NC2CCCc3ccccc32)c1O` (stereo not given), the cell number change worked out at 30.3%. Moreover, under setting [1], the AC50 was 6.51 µM [rising, partial curve, poor fit].

`O=c1c2cc(F)ccc2sn1-c1ccc(F)cc1`: the cell number change is -85.6%. The AC50 under setting [2] is 10.3 µM [falling, partial curve]. For the same compound, under setting [1], the AC50 was 5.8 µM [falling, full curve].

For the compound `COc1cc(NC(=O)c2cc(S(=O)(=O)N3CCCCC3)c[nH]2)cc(OC)c1`, the cell number change worked out at 15%.

With `CC(C)C(NC(=O)c1ccc(C(C)(C)C)cc1)C(=O)O` (stereo not given), the cell number change is 12.1%.

Regarding `O=C(/C=C/c1cccc([N+](=O)[O-])c1)NCc1ccccc1`, the cell number change was -96.1%. Under setting [2], the AC50 is 29.1 µM [falling, single point]. Moreover, the AC50 under setting [1] is 29.1 µM [falling, partial curve].

Regarding `Cc1nonc1OCCNC(=O)C12CC3CC(CC(C3)C1)C2`, the cell number change is -12.1%. Moreover, the AC50 under setting [1] was 11.6 µM [falling, partial curve, poor fit].

Turning to `O=C(NC1CCCCCC1)c1cc2c(=O)n3ccccc3nc2s1`, the cell number change amounted to 28.6%.

As for `CCCCOc1ccc(C(=O)N/C(=C\c2ccc(OC)cc2)C(=O)OCc2ccco2)cc1`, the cell number change is -28.7%. Further, under setting [2], the AC50 is 0.82 µM [rising, full curve, poor fit].

With `CN(C)c1ccc(CNc2ccc3c(c2)ncn3C)cc1`, the AC50 under setting [1] was 0.13 µM [falling, full curve, poor fit].

On to `Cc1cccc(-c2nsc(SCC(=O)Nc3cc(C)on3)n2)c1`, for which the cell number change amounted to 3.07%. For the same compound, the AC50 under setting [1] is 0.00461 µM [falling, full curve, poor fit].

For the compound `COc1ccc(N2CCN(/C(=N\S(=O)(=O)c3ccc(C)cc3)Nc3nc(C)cc(C)n3)CC2)cc1`, the AC50 under setting [2] was 0.259 µM [rising, full curve, poor fit].

For the compound `Cn1c(=O)c(C(=O)c2ccccc2)nc2ccccc21`, the cell number change is -15.2%. Besides, the AC50 under setting [1] is 20.6 µM [falling, single point].

In the case of `CCc1cc2c(=O)n(CC)c(SC(C)C(=O)Nc3c(C)n(C)n(-c4ccccc4)c3=O)nc2s1` (stereo not given), the cell number change was determined as 43.7%. Moreover, under setting [2], the AC50 is 0.731 µM [rising, partial curve]. The AC50 under setting [1] is 0.731 µM [rising, partial curve].

Take `CCCCNc1cc(C)nc(N2CCOCC2)n1`: the cell number change is 119%. Moreover, the AC50 under setting [2] is 11.6 µM [rising, partial curve]. In addition, the AC50 under setting [1] is 0.366 µM [rising, full curve, poor fit].

`COc1cccc(C(C(=O)NC2CCCCC2)N(C(=O)c2csnn2)C2CC2)c1` (stereo not given): the cell number change was -3.15%. The AC50 under setting [1] was 29.1 µM [falling, single point].

Turning to `COc1ccc(N(CC(=O)NCc2ccc3c(c2)OCO3)S(C)(=O)=O)cc1OC`, the cell number change came out at 107%. Further, the AC50 under setting [2] was 6.51 µM [falling, single point]. Further, the AC50 under setting [1] was 6.51 µM [falling, partial curve].

As to `CC(C)(C)NC(=O)Nc1ccc(Cn2cc(C(F)(F)F)ccc2=O)cc1`, the cell number change was 27.5%.

For `Cc1cc(C)n2nc(CNS(=O)(=O)c3ccc(C)c(C)c3)nc2n1`, the cell number change is -2.59%. Besides, the AC50 under setting [1] was 29.1 µM [rising, single point].

On to `FC(F)(F)c1cc(-c2ccco2)nc(NCc2cccs2)n1`, for which the cell number change is -26.6%. Besides, the AC50 under setting [1] was 29.1 µM [falling, single point].

With `CCOc1ccc(C2NC(=O)Cc3cc(OC)c(OC)cc32)cc1` (stereo not given), the cell number change came to 13.5%.

As for `Cc1nc(=O)c(-c2ccccc2)c(C)n1CCCCCC(=O)O`, the cell number change is -35%. Further, under setting [2], the half-maximal activity concentration (AC50) was 0.00517 µM [falling, full curve]. Besides, under setting [1], the AC50 is 0.0058 µM [falling, full curve, poor fit].

As to `Cc1ccc(N=Cc2ccc[nH]2)c(O)c1`, the AC50 under setting [1] was 2.06 µM [falling, partial curve].

As for `O=C(COC(=O)C1CC2CCCC(C1)C2=O)NNC(=O)c1ccc([N+](=O)[O-])cc1` (stereo not given), the cell number change was -1.53%.

Take `CCOC(=O)CSc1nnc(CSc2nc(N)c3c(C)c(C)sc3n2)n1-c1ccccc1`: the cell number change is -0.16%. Moreover, the AC50 under setting [1] is 0.411 µM [rising, full curve, poor fit].

For `COc1ccc(C(C(=O)NC2CCCC2)N(C(=O)CNC(=O)c2ccco2)c2cccnc2)cc1` (stereo not given), the cell number change is -3.91%. Also, the AC50 under setting [1] was 6.51 µM [falling, single point].

On to `CN(Cc1ccccc1)C(=O)c1ccccc1NC(=O)C1CC1`, for which the cell number change is -37.7%.

For `O=C(NCc1ccccc1)c1ccc(Cl)c(NC2=NC3CS(=O)(=O)CC3S2)c1` (stereo not given), the cell number change stood at 10.1%.

Take `CC(CCc1ccccc1)NC(=O)Cc1ccc([N+](=O)[O-])cc1` (stereo not given): the cell number change worked out at 25.7%. Also, the AC50 under setting [1] was 18.4 µM [rising, single point].

`COC(=O)c1ccc(CS(=O)(=O)c2ccc(F)cc2)o1`: the cell number change is 18.5%. Besides, the AC50 under setting [1] is 4.11 µM [rising, partial curve, poor fit].
